Laboratory results reported in doi:10.1101/2024.06.27.600868.

B1: Cwf23 wild type fused to the GAL4 activation domain (protein, UniProt Q9P7C6 1-289)
chain: MASEGDSIDYYELLGINEDAQDQEIHRAWRKTSLKYHPDKNPNDPKAAEKFHMLQLAYNALIDVQLRKAYDSERFAKLARKRREEAFNFQRKSMVDDLRERERQFYDSLEKKENERDRLQEKLRALQEESANLRRQRENRLREEQEQSKRRKQETPSSKISELDRSIRIRWKRKYADQVNDAYLRSIYSSFGTLQNVVIQKDISKEKKYVYSIIVFETLSSAYSAINAEKPSKIYDVQWLKPPKSNSNTPTEKDTTVEDYEEITIMRMKQKHKQKQKENERKATSTMNA
B2: Cwf23 H37Q fused to the GAL4 activation domain (protein, UniProt Q9P7C6 1-289)
chain: B1 chain with H37Q
B3: Cwf23 ΔJ fused to the GAL4 activation domain (domain or fragment, UniProt Q9P7C6 67-289)
chain: RKAYDSERFAKLARKRREEAFNFQRKSMVDDLRERERQFYDSLEKKENERDRLQEKLRALQEESANLRRQRENRLREEQEQSKRRKQETPSSKISELDRSIRIRWKRKYADQVNDAYLRSIYSSFGTLQNVVIQKDISKEKKYVYSIIVFETLSSAYSAINAEKPSKIYDVQWLKPPKSNSNTPTEKDTTVEDYEEITIMRMKQKHKQKQKENERKATSTMNA

Each binder was assayed against SpNtr1 fused to the GAL4-binding domain (S. pombe) (assay: two-hybrid).

binding, binds:
B1
B2
B3

Positions count from the first letter of the chain named. Names and notes keep the numbering of the source. No constants are given. Whether binding was seen depends on the method and setting. A result given as binding can be weak or reduced; the word gives no strength. Where a sequence is shown, tags or fusion partners need not be part of it.
